Assay results: US10611797B2, “Peptide having anticancer activity, and pharmaceutical composition and dietary supplement composition for preventing and treating cancer, both of which contain same as active ingredient” (IUCF-HYU (INDUSTRY-UNIVERSITY COOPERATION FOUNDATION …, priority 2015, dated 2020)
Some of these results come from one statement about several compounds together. At least one structure is not confirmed: it was looked up by name or label, or the drawing left a doubt.

System: human embryonic stem cell line (H9) and co-cultured cells
Assay: Microscopy of human embryonic stem cell line (H9) in co-culture
Assay type: cell-based
Conditions: 72 h
Procedure: Two colonies of a human embryonic stem cell line (H9) per well were inoculated into 96-well plates on which normal embryonic epithelial cells or embryonic epithelial cells fluorescently stained with rhodamine were plated, followed by culture for 24 h.

Structure (SMILES): CCOc1ccccc1C1CC(=O)Nc2cc3c(cc21)OCO3 (stereo not shown) [FQI1, Factor Quinolinone Inhibitor 1]
- concentrations at which embryonic stem cells and co-cultured cell line died: ≥ 3000 nM
